Results published in the supplement of paper PMC10849652.
The other results are listed elsewhere or left out.

Chains of the proteins cited; added tags and fusions are not shown. Lines headed by an entry give the natural chain unless they say otherwise; changes in a name come on top.
UniProt P35659: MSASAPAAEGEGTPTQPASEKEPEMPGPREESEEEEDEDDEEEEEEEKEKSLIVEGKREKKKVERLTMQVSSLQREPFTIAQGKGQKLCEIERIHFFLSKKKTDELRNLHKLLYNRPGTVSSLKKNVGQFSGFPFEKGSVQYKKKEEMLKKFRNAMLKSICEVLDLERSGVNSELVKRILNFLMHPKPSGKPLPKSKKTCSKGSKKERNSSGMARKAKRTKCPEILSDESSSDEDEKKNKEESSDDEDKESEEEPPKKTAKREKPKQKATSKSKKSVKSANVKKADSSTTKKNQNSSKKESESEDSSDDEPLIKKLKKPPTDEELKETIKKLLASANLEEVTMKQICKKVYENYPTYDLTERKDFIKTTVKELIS
UniProt Q9NR30: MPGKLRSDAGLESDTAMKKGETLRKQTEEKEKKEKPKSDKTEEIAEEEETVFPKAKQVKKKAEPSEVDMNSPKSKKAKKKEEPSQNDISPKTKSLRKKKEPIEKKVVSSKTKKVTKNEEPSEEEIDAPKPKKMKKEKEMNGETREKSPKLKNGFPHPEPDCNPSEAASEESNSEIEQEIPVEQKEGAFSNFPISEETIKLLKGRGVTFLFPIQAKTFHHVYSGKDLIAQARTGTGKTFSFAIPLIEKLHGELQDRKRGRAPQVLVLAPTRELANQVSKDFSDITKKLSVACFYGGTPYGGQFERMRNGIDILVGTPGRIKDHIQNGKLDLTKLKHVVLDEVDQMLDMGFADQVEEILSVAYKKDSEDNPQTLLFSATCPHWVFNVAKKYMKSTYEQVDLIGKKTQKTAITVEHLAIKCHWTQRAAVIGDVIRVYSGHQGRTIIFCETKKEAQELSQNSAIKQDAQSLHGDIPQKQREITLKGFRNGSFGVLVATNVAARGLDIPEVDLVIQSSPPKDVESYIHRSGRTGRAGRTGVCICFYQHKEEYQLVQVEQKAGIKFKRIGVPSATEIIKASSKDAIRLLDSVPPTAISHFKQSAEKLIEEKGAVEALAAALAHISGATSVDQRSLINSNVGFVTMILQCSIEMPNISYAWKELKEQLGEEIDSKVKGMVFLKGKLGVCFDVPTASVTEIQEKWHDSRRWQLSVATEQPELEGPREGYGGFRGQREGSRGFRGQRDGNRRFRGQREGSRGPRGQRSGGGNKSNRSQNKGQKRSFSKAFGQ
UniProt Q9BTE1, whole entry, looked up: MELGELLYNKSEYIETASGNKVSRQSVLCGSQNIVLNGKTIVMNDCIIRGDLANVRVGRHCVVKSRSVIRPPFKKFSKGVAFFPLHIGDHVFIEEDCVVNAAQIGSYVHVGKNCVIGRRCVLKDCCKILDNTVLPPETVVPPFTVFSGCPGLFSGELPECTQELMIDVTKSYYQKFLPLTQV
UniProt Q8N465: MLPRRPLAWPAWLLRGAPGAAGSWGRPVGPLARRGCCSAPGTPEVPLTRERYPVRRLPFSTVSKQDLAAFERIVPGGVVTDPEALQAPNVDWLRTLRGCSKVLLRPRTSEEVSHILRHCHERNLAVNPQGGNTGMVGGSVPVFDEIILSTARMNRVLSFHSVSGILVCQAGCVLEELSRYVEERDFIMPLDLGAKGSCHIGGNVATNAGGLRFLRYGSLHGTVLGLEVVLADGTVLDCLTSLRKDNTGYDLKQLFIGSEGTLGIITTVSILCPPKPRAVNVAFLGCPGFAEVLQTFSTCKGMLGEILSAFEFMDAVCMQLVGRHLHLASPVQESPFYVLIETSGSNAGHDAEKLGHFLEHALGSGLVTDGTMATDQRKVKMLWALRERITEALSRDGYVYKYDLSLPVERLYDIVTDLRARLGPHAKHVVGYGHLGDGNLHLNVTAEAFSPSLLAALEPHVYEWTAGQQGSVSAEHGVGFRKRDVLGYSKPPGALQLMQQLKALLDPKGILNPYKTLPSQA
UniProt Q92466: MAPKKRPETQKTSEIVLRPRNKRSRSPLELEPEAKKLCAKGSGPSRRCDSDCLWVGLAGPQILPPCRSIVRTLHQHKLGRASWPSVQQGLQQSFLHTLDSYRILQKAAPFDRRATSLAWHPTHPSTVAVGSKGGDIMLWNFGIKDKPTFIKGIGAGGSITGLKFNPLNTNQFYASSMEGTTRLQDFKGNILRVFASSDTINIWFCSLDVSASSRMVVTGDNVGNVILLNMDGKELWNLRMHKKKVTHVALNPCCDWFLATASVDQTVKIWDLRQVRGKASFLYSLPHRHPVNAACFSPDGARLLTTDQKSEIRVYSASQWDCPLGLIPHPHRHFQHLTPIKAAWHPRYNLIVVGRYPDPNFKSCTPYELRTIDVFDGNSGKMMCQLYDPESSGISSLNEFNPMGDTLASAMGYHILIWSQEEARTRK
UniProt Q5T1V6: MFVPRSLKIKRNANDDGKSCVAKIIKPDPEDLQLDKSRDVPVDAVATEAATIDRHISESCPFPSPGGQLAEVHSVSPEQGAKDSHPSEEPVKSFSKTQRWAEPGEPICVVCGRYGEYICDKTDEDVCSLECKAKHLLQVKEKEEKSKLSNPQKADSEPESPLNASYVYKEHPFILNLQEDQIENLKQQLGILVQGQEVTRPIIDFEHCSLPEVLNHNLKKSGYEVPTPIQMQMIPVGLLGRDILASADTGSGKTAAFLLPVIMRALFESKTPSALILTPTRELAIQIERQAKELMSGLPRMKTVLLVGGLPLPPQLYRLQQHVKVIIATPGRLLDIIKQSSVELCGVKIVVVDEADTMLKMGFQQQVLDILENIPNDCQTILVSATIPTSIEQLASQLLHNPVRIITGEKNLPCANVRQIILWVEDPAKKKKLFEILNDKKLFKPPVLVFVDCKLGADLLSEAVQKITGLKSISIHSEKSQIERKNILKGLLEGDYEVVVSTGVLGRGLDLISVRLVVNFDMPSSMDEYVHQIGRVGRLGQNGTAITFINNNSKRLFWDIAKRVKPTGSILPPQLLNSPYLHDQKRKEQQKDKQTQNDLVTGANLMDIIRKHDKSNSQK
UniProt Q16850: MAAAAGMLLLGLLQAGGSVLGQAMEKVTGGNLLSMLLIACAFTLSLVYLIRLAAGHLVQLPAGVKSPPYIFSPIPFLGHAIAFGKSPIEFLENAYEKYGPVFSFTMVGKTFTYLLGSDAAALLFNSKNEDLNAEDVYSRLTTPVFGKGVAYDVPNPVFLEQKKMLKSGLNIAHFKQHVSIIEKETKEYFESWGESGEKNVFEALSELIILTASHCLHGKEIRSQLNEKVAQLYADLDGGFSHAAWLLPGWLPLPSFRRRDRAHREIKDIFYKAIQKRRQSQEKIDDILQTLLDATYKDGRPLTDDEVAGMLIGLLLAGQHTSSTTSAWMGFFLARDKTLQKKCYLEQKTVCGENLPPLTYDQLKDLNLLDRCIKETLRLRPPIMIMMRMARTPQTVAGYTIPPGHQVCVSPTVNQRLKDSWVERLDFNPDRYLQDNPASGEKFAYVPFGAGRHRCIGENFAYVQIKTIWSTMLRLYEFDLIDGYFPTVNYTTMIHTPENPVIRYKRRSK
UniProt Q14203, whole entry, looked up: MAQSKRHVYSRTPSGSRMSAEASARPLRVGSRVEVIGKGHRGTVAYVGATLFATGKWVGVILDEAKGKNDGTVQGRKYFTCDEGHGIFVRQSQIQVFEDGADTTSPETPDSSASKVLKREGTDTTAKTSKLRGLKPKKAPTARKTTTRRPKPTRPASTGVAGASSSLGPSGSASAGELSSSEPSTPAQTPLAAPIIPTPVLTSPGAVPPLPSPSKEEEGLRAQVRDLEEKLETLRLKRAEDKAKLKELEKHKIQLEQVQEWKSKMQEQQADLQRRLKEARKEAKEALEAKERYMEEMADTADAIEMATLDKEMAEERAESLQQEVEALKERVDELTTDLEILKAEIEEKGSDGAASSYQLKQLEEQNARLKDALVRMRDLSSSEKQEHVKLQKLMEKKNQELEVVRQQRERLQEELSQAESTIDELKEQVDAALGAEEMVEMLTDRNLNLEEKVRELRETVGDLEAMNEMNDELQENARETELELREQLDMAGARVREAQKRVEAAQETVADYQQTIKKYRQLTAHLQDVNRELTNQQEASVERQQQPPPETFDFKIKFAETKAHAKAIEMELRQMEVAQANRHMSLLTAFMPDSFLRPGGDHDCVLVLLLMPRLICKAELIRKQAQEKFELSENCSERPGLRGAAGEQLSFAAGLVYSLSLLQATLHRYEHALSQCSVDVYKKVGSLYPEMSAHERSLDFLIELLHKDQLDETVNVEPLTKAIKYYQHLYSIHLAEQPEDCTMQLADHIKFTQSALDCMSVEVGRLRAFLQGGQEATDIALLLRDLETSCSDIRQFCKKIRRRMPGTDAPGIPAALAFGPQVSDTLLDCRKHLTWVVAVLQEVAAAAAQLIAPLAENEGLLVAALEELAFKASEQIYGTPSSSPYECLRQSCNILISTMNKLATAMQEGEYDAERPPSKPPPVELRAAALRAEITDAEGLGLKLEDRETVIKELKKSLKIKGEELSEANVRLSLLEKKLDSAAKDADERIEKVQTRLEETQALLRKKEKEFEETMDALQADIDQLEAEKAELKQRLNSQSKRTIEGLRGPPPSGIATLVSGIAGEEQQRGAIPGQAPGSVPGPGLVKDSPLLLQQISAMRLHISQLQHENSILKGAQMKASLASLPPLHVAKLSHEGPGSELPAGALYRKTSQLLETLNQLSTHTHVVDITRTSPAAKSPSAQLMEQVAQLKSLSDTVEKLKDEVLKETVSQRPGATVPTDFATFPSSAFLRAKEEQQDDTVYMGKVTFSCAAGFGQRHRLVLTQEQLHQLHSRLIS
UniProt P27707: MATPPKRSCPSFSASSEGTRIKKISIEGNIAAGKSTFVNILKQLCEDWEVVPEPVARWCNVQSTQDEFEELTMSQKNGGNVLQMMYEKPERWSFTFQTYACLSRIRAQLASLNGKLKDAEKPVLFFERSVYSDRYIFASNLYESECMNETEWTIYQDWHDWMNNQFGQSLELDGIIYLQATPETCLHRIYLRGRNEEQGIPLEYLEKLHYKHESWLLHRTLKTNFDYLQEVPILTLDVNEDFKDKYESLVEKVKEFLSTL
UniProt P30046: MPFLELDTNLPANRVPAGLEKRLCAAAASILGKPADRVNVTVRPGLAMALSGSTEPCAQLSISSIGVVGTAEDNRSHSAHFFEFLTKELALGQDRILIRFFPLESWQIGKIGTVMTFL
UniProt Q9GZP9: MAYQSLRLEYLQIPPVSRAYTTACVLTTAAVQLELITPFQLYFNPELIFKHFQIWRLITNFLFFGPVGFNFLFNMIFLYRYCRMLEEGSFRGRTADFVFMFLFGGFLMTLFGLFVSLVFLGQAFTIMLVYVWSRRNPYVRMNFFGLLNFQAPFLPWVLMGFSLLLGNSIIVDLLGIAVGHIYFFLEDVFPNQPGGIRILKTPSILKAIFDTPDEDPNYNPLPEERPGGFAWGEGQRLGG
UniProt Q9UK59: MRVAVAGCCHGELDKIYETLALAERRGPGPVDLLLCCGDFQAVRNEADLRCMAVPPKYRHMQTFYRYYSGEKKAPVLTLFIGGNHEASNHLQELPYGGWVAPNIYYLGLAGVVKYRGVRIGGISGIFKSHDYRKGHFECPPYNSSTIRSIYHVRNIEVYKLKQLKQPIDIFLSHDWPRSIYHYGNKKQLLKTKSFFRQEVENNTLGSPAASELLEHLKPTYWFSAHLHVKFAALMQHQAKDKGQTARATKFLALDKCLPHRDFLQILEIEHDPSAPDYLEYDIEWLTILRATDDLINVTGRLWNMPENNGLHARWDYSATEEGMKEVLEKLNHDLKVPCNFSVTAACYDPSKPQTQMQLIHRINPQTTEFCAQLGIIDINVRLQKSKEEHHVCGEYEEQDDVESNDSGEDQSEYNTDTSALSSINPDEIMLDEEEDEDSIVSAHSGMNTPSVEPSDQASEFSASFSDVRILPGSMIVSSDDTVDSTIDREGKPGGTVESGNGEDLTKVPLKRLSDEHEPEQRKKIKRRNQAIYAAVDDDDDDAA
UniProt Q8NCG7: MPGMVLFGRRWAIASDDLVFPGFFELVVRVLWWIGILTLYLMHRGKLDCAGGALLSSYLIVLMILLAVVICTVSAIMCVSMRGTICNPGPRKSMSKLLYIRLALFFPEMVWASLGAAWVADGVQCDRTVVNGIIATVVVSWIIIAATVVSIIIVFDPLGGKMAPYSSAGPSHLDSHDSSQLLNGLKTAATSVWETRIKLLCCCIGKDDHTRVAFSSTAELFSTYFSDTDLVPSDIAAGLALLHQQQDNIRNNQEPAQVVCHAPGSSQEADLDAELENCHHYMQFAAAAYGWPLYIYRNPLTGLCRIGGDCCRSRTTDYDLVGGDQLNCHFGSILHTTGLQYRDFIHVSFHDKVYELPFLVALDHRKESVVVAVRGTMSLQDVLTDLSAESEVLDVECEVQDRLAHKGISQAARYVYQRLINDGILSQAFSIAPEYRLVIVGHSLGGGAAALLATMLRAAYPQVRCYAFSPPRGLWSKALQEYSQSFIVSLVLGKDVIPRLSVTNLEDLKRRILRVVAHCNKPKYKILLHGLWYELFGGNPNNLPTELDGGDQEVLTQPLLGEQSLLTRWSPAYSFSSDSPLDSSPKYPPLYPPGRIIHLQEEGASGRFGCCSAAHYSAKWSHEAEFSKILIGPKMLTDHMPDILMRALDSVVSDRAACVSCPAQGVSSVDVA

These targets were tested with Cn1cncc1[C@@](N)(c1ccc(Cl)cc1)c1ccc2c(c1)c(-c1cccc(Cl)c1)cc(=O)n2C [tipifarnib] (assay: log2 fold change, soluble protein after heating vs DMSO (PISA); higher = thermal stabilisation; K562 lysate, 10 uM; active = over 0.2 and 3.5 SD of the protein, either way, in both replicates (recomputed)).
Procedure, shortened: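 K562 pellets were dounce-homogenised in PBS pH 7.4 containing 1 mM MgCl2, and the crude extract, at 1 mg/mL protein, was exposed to 10 μM compound for 30 min. Aliquots were heated for 3 min across 48°C-58°C, pooled, brought to 0.5% NP-40 at 4°C and spun at 21,000xg for 90 min, with the supernatant taken as soluble protein. TMTpro 16plex LC-MS/MS with equalised channel sums quantified that protein. Values are log-two fold changes in thermal stability relative to solvent controls, taken from duplicates.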

Target | log2 fold change
DENND4C (UniProt Q5VZ89) | inactive: -0.025
DEK (UniProt P35659) | inactive: 0.004
DBN1 (UniProt Q16643) | inactive: -0.008
DDX21 (UniProt Q9NR30) | inactive: 0.013
DCTN5 (UniProt Q9BTE1) | inactive: -0.026
D2HGDH (UniProt Q8N465) | inactive: -0.089
DDX39B isoform 2 (UniProt Q13838) | inactive: -0.006
DFFA isoform 2 (UniProt O00273) | inactive: 0.009
DDB2 (UniProt Q92466) | inactive: 0.026
DDX59 (UniProt Q5T1V6) | inactive: -0.02
CYP51A1 (UniProt Q16850) | active: 0.664
DEF6 (UniProt Q9H4E7) | inactive: 0.027
DAD1 (UniProt P61803) | inactive: -0.112
DERPC (UniProt P0CG12) | inactive: -0.069
DDX39A (UniProt O00148) | inactive: -0.053
DCTN1 (UniProt Q14203) | inactive: -0.001
DDA1 (UniProt Q9BW61) | inactive: -0.008
DCK (UniProt P27707) | inactive: -0.008
DDT (UniProt P30046) | inactive: 0.061
DERL2 (UniProt Q9GZP9) | inactive: 0.016
DBR1 (UniProt Q9UK59) | inactive: 0.002
DAGLB (UniProt Q8NCG7) | inactive: 0.066
DARS2 (UniProt Q6PI48) | inactive: -0.015
DCP1A (UniProt Q9NPI6) | inactive: 0.039

Random excerpt: 2 entries already listed.
Target | log2 fold change
DEF6 (UniProt Q9H4E7) | inactive: 0.027
DDA1 (UniProt Q9BW61) | inactive: -0.008
